Reference: PubChem BioAssay AID652243 (Drosophila RNAi Screening Center, 2013)
Aim: 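Knock-downs that decrease or increase androgen receptor reporter signal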 (primary screen). Cells: Drosophila S2R+ cells. Reagent: long dsRNA against Drosophila genes. Duration: 72 h (48 h, then 24 h hormone). Challenge: synthetic androgen R1881 at 10 nM for 24 h. Detection: 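Per-well raw luminescence of the androgen-driven firefly reporter and of the Renilla control, two replicates each, without normalisation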. Reading the numbers: firefly reporter light: higher = more light from androgen-responsive reporter; Renilla control light: higher = more constitutive control signal (cell number, transfection). Active means: 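Hit when the log firefly-to-Renilla ratio dropped or increased by a fixed fold versus the mean of GFP or LacZ controls across duplicate plates; lowering cut given as 1.5 and as 3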. Meaning of the calls: active = hit: reporter lowered or raised; inactive = no hit.
The screen tested about 24,000 reagents; this is an unselected part of those with a known target gene and a result. In the full data, 246 (1%) were called active. 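Plates not normalised; calls are printed but the firefly/Renilla ratio behind them is not deposited; fold cut for lowering reported inconsistently.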 Raw values vary from plate to plate and are shown uncorrected. Entries without a mark were called inactive. Reagents against one gene are numbered here. A plus sign joins genes that one reagent is predicted to hit. No sequences are given here. Not stated in the record: the amount of reagent.

gene | reagent | firefly reporter light, replicate 1 | firefly reporter light, replicate 2 | Renilla control light, replicate 1 | Renilla control light, replicate 2
Grip91 (Gamma-tubulin ring protein 91) | 1 | 43101 | 49573 | 4.07e5 | 4.00e5
BomS1 (Bomanin Short 1) | 1 | 6.79e5 | 6.80e5 | 3.24e5 | 2.33e5
cmpy (crimpy) | 1 | 5.61e5 | 4.21e5 | 2.68e6 | 2.44e6
CG43980 | 1 | 2.13e5 | 1.57e5 | 5.70e5 | 6.49e5
CG43980 | 2 | 2.80e5 | 2.32e5 | 2.67e6 | 1.82e6
CG43980 | 3 | 2.53e5 | 8.79e5 | 8.14e5 | 1.35e6
CG43980 | 4 | 96097 | 1.13e5 | 1.41e5 | 81503
CG43980 | 5 | 5.74e5 | 5.02e5 | 1.43e6 | 1.57e6
xmas-1 (retired record) | 1 | 2.88e5 | 3.19e5 | 3.02e6 | 1.74e6
xmas-1 (retired record) | 2 | 2.88e5 | 4.33e5 | 8.36e5 | 5.60e5
CG10383 | 1 | 8.06e5 | 8.18e5 | 2.05e6 | 2.43e6
CG10383 | 2 | 6.62e5 | 8.58e5 | 9.88e5 | 1.10e6
TM4SF (Transmembrane 4 superfamily) | 1 | 1.07e6 | 8.19e5 | 1.68e6 | 1.60e6
CG10459 | 1 | 3.61e5 | 1.91e5 | 1.99e6 | 2.22e6
CG10459 | 2 | 9.94e5 | 8.30e5 | 2.65e6 | 1.74e6
CG8320 + ATPCL | 1 | 65584 (active) | 87127 | 2.10e6 | 2.10e6
CG10081 | 1 | 85546 | 1.16e5 | 9.89e5 | 1.37e6
CG10081 | 2 | 9.12e5 | 9.87e5 | 9.56e5 | 1.04e6
CR31958 (pseudo) | 1 | 1.50e5 | 1.54e5 | 1.37e6 | 1.40e6
CR31958 (pseudo) | 2 | 8.02e5 | 8.87e5 | 1.17e6 | 1.40e6
CR31958 (pseudo) | 3 | 6.11e5 | 6.16e5 | 7.21e5 | 7.30e5
Pus1 (Pseudouridine synthase 1) | 1 | 2.52e5 | 2.87e5 | 4.43e6 | 4.23e6
Pus1 (Pseudouridine synthase 1) | 2 | 2.21e5 | 2.42e5 | 5.83e5 | 6.80e5
Hr3 (Hormone receptor 3) | 1 | 8.83e5 | 8.80e5 | 1.74e6 | 1.85e6
CG9132 | 1 | 51201 | 96190 | 4.81e5 | 4.95e5
CG5171 | 1 | 6.66e5 | 8.23e5 | 1.20e6 | 1.34e6
CG5171 | 2 | 6.18e5 | 4.98e5 | 2.09e6 | 1.58e6
CG34011 | 1 | 1.06e6 | 7.50e5 | 2.00e6 | 1.82e6
LBR (Lamin B receptor) | 1 | 6.17e5 | 6.17e5 | 3.02e6 | 2.90e6
LBR (Lamin B receptor) | 2 | 9.46e5 | 1.09e6 | 1.45e6 | 1.45e6
Prx1 (Peroxiredoxin 1) | 1 | 1.51e5 | 1.58e5 | 1.28e6 | 1.74e6
Prx1 (Peroxiredoxin 1) | 2 | 5.78e5 | 7.65e5 | 8.48e5 | 1.09e6
ThrRS (Threonyl-tRNA synthetase) | 1 | 8.95e5 | 7.81e5 | 1.58e6 | 1.73e6
CG4650 | 1 | 1.37e5 | 1.40e5 | 2.09e6 | 1.96e6
sug (sugarbabe) | 1 | 9.40e5 | 8.41e5 | 1.46e6 | 1.58e6
sug (sugarbabe) | 2 | 3.79e5 | 5.56e5 | 8.45e5 | 8.45e5
CG11313 | 1 | 1.19e5 | 1.55e5 | 1.58e6 | 1.97e6
Sod3 (Superoxide dismutase 3) | 1 | 6.97e5 | 7.64e5 | 2.68e6 | 2.11e6
Sod3 (Superoxide dismutase 3) | 2 | 2.73e5 | 2.60e5 | 6.69e5 | 5.13e5

Hits, among the entries above:
gene | reagent | firefly reporter light, replicate 1 | firefly reporter light, replicate 2 | Renilla control light, replicate 1 | Renilla control light, replicate 2
CG8320 + ATPCL | 1 | 65584 (active) | 87127 | 2.10e6 | 2.10e6

The listing continues.
gene | reagent | firefly reporter light, replicate 1 | firefly reporter light, replicate 2 | Renilla control light, replicate 1 | Renilla control light, replicate 2
CG8230 | 1 | 1.12e5 | 1.94e5 | 8.36e5 | 1.13e6
rnh1 (ribonuclease H1) | 1 | 2.70e5 | 2.56e5 | 1.39e6 | 1.39e6
RpL30 (Ribosomal protein L30) | 1 | 1.69e5 | 1.80e5 | 1.08e6 | 1.61e6
myd (mayday) | 1 | 2.80e5 | 2.79e5 | 2.21e6 | 2.77e6
CG6403 | 1 | 4.79e5 | 4.56e5 | 2.63e6 | 4.26e6
mahj (mahjong) | 1 | 7.62e5 | 6.72e5 | 1.58e6 | 2.22e6
CG33307 | 1 | 2.51e5 | 3.99e5 | 3.19e5 | 5.35e5
CG30349 | 1 | 2.83e5 | 2.47e5 | 2.27e6 | 2.01e6
CG30349 | 2 | 1.18e5 | 2.12e5 | 1.10e6 | 1.14e6
CG30349 | 3 | 8.43e5 | 4.08e5 | 1.46e6 | 1.30e6
fz2 (frizzled 2) | 1 | 806 (active) | 940 | 46519 | 29238
fz2 (frizzled 2) | 2 | 1.79e5 | 1.53e5 | 2.15e6 | 1.37e6
Use1 (Unconventional SNARE in the ER 1) | 1 | 2.15e5 | 1.32e5 | 3.10e6 | 2.02e6
Use1 (Unconventional SNARE in the ER 1) | 2 | 3.67e5 | 4.03e5 | 5.82e5 | 5.86e5
Unc-76 (Uncoordinated 76) | 1 | 2.40e5 | 2.63e5 | 2.02e6 | 2.15e6
Unc-76 (Uncoordinated 76) | 2 | 3.08e5 | 3.59e5 | 2.60e6 | 3.61e6
CG5098 | 1 | 6.92e5 | 6.77e5 | 1.56e6 | 1.67e6
CG5098 | 2 | 6.82e5 | 9.37e5 | 7.47e5 | 8.82e5
rho-4 (rhomboid-4) | 1 | 85537 | 53868 | 8.16e5 | 5.42e5
rho-4 (rhomboid-4) | 2 | 5.58e5 | 6.83e5 | 4.89e6 | 2.61e6
